Measurements reported in PubChem BioAssay AID602196 (INSERM, 2012)

Test: 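Modifiers of cisplatin sensitivity in A549 cells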
Cell system: human A549 lung cancer cells
Reagent: siRNA pair against human genes
Duration: 48 h transfection before cisplatin; time from cisplatin to read-out not stated
Challenge: cisplatin at a dose killing half of control-siRNA cells; exact dose and duration not given
Detection: 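Cisplatin cell death as a shift from the 50% death seen with control siRNA; siRNAs toxic or growth-blocking alone scored 0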
Direction: two-siRNA summed score (-2 to +2): higher = both siRNAs protect from cisplatin killing; -2 means both sensitise; mean protection from cisplatin (shift in death) and protection from cisplatin (shift in death), siRNA C and protection from cisplatin (shift in death), siRNA D: higher = protection from cisplatin killing
Rule for the call: 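siRNAs harmful alone (LDH or WST-1) get 0; others get +1 for less and -1 for more cisplatin killing; genes are active when the two siRNAs give the same sign, summing to ±2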
Calls: active = both siRNAs shift cisplatin killing the same way; inactive = no consistent shift, or siRNA harmful alone
The whole screen tested about 23,000 reagents; below is a part drawn at random. In the full data, 455 (2%) were called active. 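Active includes both protection and sensitisation; some change values fall well beyond the stated -50 to +50 range.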 Entries without a mark were called inactive. Reagents against one gene are numbered here. Reagent sequences are not shown. Not given: the amount of reagent.

gene knocked down	reagent no.	two-siRNA summed score (-2 to +2)	mean protection from cisplatin (shift in death) (%)	protection from cisplatin (shift in death), siRNA C (%)	protection from cisplatin (shift in death), siRNA D (%)
LOC400368	1	0	-0.4	3.8	-4.7
GPR42	1	-1	-6.8	4.7	-18.4
EMSY	1	0	-5.2	-17.3	6.9
A1CF	1	0	6.3	3.2	9.4
PYGO1	1	-2 (active)	-29	-31	-27
ABL2	1	-1	-15.6	-24.4	-6.8
PLEKHF1	1	-1	-7	-31	17
PINLYP	1	1	12.3	16.4	8.1
KRT15	1	-1	-6.7	9.9	-23.4
LOC400751	1	0	-1.7	-6.9	3.6
ESRP2	1	-1	-11.5	0.1	-23
GNL3L	1	0	7.1	5.6	8.5
PM20D1-AS1	1	0	1.3	8.6	-5.9
OR1L6	1	0	5.7	7.4	4
SLC9A8	1	0	-26.1	-25.8	-26.4
FBXO46	1	0	-0.5	18.6	-19.5
LOC402414	1	0	4	10.1	-2
LOC400197	1	0	6.2	7.3	5.1
LOC390712	1	0	2.4	3.6	1.2
IFTAP	1	0	8	4.1	12
CYTOR	1	0	-5	-4.4	-5.6
CYTOR	2	0	3	7.3	-1.3
PLAU	1	1	10.8	-1	22.7
CHCHD1	1	0	3.9	-0.8	8.7
VPS18	1	0	6.8	17.4	-3.7
LOC257039	1	0	1.5	-3.7	6.6
HLA-DOB	1	1	15.4	0.3	30.5
NID2	1	0	-30.7	-32.3	-29.1
LOC283226	1	0	7.1	11.9	2.3
PRKX	1	-1	-5.9	0	-11.8
ERH	1	0	18.1	33.2	3.1
LOC400298	1	1	15.5	17	13.9
ZNF235	1	1	10.1	2.3	17.9
LOC387873	1	0	2.5	-12.4	17.4
LOC441485	1	0	3.1	-5.7	11.9
ADAM23	1	-1	-10.3	2.2	-22.8
CTSB	1	0	0	-9.3	9.3
DNM1P35	1	1	9.7	-7	26.5
PTOV1	1	0	-9.3	-2.5	-16.1
GKAP1	1	0	-5.1	-0.2	-10.1
C3orf52	1	0	3.8	2.6	5
HEATR5A	1	0	-5.2	-9	-1.4
UCHL1	1	0	0.1	-10.3	10.5
NLGN4X	1	0	2.4	1.3	3.5
LOC390773	1	0	15.8	13.3	18.3
PTGES2	1	0	-0.6	2.2	-3.4
CHORDC1	1	-1	-15.3	-10.4	-20.1
DAPP1	1	0	-4.5	-3.2	-5.7
PEF1	1	0	6	4.5	7.5
IER3	1	0	7.4	-2.1	16.8
LOC442518	1	0	24.6	27.8	21.5
LOC441075	1	1	14.7	24.7	4.7
MEGF9	1	1	18.5	26.6	10.3
GLIPR1L1	1	2 (active)	21.5	23.7	19.2
LINC00698	1	0	10.5	13.9	7.1
ZNG1C	1	0	2.4	-3.7	8.4
LINC02076	1	0	13.5	9	18.1

Entries above marked active, once more:
gene knocked down	reagent no.	two-siRNA summed score (-2 to +2)	mean protection from cisplatin (shift in death) (%)	protection from cisplatin (shift in death), siRNA C (%)	protection from cisplatin (shift in death), siRNA D (%)
PYGO1	1	-2 (active)	-29	-31	-27
GLIPR1L1	1	2 (active)	21.5	23.7	19.2
